Measurements reported in PubChem BioAssay AID504808 (Drosophila RNAi Screening Center, 2011)
Assay: 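Chromatin factors that keep E2F targets switched off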 (primary screen). Cell system: Drosophila S2 cells. Reagent: long dsRNA against Drosophila genes. Measurement: 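Dual luciferase plate measurements; E2F-specific signal taken as firefly over Renilla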. Direction: E2F firefly: higher = more E2F reporter activity; Renilla normaliser: higher = more normaliser reporter signal. Active means: 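Called active if the normalised E2F reporter went up by over 50%; the cutoff is arbitrary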.
The deposit covers about 21,000 reagents; this is a random part of those that have a named target and a result. In the full data, 18 (0.084%) are marked active. 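Raw counts without plate normalisation, one of two replicates; the ratio scores behind the calls were not deposited.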 Names joined by + are all predicted targets of the reagent. The record does not give: the amount of reagent, the time to read-out.

E2F firefly, rep 1 | Renilla normaliser, rep 1 | Call | target gene | dsRNA
1.34e5 | 8216 | inactive | CG13053 | DRSC09934
1.30e5 | 6482 | inactive | Jon99Fii | DRSC15430
87581 | 2672 | inactive | nod | DRSC18900
7944 | 844 | inactive | nod | DRSC20356
1.12e5 | 5636 | inactive | JYalpha | DRSC17224
51415 | 3287 | inactive | CG13319 | DRSC06356
77431 | 3669 | inactive | Nprl3 | DRSC11044
1.25e5 | 6738 | inactive | kumpel | DRSC14883
1.17e5 | 6503 | inactive | kumpel | DRSC16459
1.13e5 | 5545 | inactive | kumpel | DRSC16460
1.08e5 | 5960 | inactive | kumpel | DRSC16461
1.10e5 | 6403 | inactive | kumpel | DRSC16462
95275 | 5970 | inactive | kumpel | DRSC16463
82129 | 3374 | inactive | CG42700 | DRSC06292
1.05e5 | 4366 | inactive | CG42700 | DRSC06293
50668 | 3332 | inactive | CG1792 | DRSC15290
1.51e5 | 4970 | inactive | CG17124 | DRSC02580
1.37e5 | 4633 | inactive | CG3287 (retired record) | DRSC04991
1.21e5 | 4183 | inactive | CG42715 (retired record) | DRSC05499
85323 | 4165 | inactive | exp | DRSC06313
1.68e5 | 6156 | inactive | mbm + CG11555 | DRSC00315
1.30e5 | 5659 | inactive | ATP6 (retired record) | DRSC21278
1.26e5 | 5726 | inactive | CG34124 | DRSC00849
66558 | 3551 | inactive | CG6785 | DRSC02993
65559 | 2481 | inactive | klg | DRSC13591
99002 | 6413 | inactive | klg | DRSC16978
1.01e5 | 5177 | inactive | Atg12 | DRSC09803
87584 | 4094 | inactive | Ugt36E1 | DRSC02599
1.03e5 | 4923 | inactive | Rsph1 | DRSC02864
64733 | 2953 | inactive | Socs36E | DRSC02455
1.35e5 | 6475 | inactive | Muc18B | DRSC20064
1.36e5 | 5732 | inactive | CG31949 | DRSC00110
1.41e5 | 4294 | inactive | CG32846 | DRSC08012
1.40e5 | 5973 | inactive | CG31759 | DRSC01230
1.27e5 | 6200 | inactive | REG | DRSC20273
90907 | 3463 | inactive | CG33140 | DRSC06030
1.35e5 | 6903 | inactive | CG11899 | DRSC16656
1.47e5 | 5511 | inactive | CG3213 | DRSC00576
66406 | 3457 | inactive | Gdh | DRSC16679
1851 | 960 | inactive | Slip1 | DRSC17146
97348 | 3700 | inactive | CG17030 | DRSC08503
1.15e5 | 6754 | inactive | hydra | DRSC20497
73950 | 3692 | inactive | fwd | DRSC08580
1.11e5 | 6113 | inactive | CG7912 | DRSC16343
1.27e5 | 5929 | inactive | CG14417 | DRSC18638
89938 | 3741 | inactive | CG14820 | DRSC10191
1.29e5 | 5753 | inactive | CG33178 | DRSC19950
1.38e5 | 5039 | inactive | luna | DRSC05253
1.05e5 | 4126 | inactive | luna | DRSC06663
1.30e5 | 4462 | inactive | luna | DRSC07336
96266 | 3337 | inactive | Vps11 | DRSC11909
72889 | 2987 | inactive | CG5770 | DRSC06954
85822 | 3453 | inactive | ktub | DRSC04551
8407 | 716 | inactive | slpr | DRSC18225
1.46e5 | 7809 | inactive | CG33170 | DRSC11854
1.04e5 | 4998 | inactive | TwdlQ | DRSC14745
90715 | 3628 | inactive | CG31058 (retired record) | DRSC15840
3173 | 207 | inactive | spt4 | DRSC07696
1497 | 924 | inactive | Hmt4-20 | DRSC18482
3288 | 64 | inactive | lig | DRSC07246
1.49e5 | 5728 | inactive | lig | DRSC07247
1.41e5 | 4463 | inactive | CG12159 | DRSC06114
1.58e5 | 4944 | inactive | CG18662 | DRSC02691
1.60e5 | 7530 | inactive | Lasp | DRSC10379
87064 | 4205 | inactive | CG18420 | DRSC01954
1.57e5 | 7968 | inactive | Rpn12R | DRSC09842
97074 | 2480 | inactive | CG33483 | DRSC14019
1.82e5 | 5490 | inactive | Ubc10 | DRSC07568
83706 | 3417 | inactive | CG10413 | DRSC02052
71720 | 4530 | inactive | Dyrk3 | DRSC21055
1947 | 800 | inactive | PNPase | DRSC14304
92313 | 3699 | inactive | CG13901 | DRSC08371
1.37e5 | 6100 | inactive | CG14395 | DRSC14852
1.11e5 | 4917 | inactive | CG2528 | DRSC03724
77484 | 3973 | inactive | BigH1 | DRSC15491
1.03e5 | 5230 | inactive | CG13377 | DRSC18622
1.36e5 | 5521 | inactive | CG42615 | DRSC05121
1.38e5 | 5668 | inactive | pita | DRSC04006
70348 | 3286 | inactive | pita | DRSC04435
77762 | 3624 | inactive | l(3)62Be (retired record) | DRSC08231
83990 | 2547 | inactive | fend | DRSC17601
98757 | 6200 | inactive | fend | DRSC17867
83827 | 3613 | inactive | uzip | DRSC04722
2.30e5 | 8166 | inactive | CG12672 | DRSC19482
